Assay results reported in patent US7731941B2, “Staining composition for staining an ophthalmic membrane” (priority 2004, dated 2010).
Read-outs that look alike come from different tables or passages of the source. At least one compound was matched to its structure with a doubt left.

Assays:
[1] = tested on: ILM; experiment: BBG in ILM staining, effects and safety in human eyes (first attempt, 16 eyes); assay type: in vivo; conditions: individual patient case, BBG 0.25 mg/ml
Experimental: Sixteen eyes of 16 patients with a macular hole (MH) and epiretinal membranes (ERMS) were recruited from the outpatient unit of Kyushu University Hospital (Fukuoka, Japan) between August and September 2004. Patients with ocular diseases such as glaucoma, uveitis, and corneal disorder were excluded. This study was carried out with the approval from the appropriate institutional Ethics Committee and was performed in accordance with the ethical standards laid down in the 1989 Declaration of Helsinki. The possible advantages and risks of the present treatment were explained to the patients before surgery and informed consent was obtained from all patients. […] The final concentration of BBG was 0.25 mg/ml. […] Removal of the ILM was performed using ILM forceps (D.O.R.C.; Dutch Ophthalmic Research Center International b.v., Netherlands).
Postoperative examinations included slitlamp microscopy, opthalmoscopy, best corrected visual acuity (BCVA) and intraocular pressure. The visual field was evaluated with Humphrey Field Analyzer II (Humphrey Systems, Dublin, Calif., USA) after 2 months.

[2] = tested on: ophthalmic membrane; experiment: Screening of dyes: staining qualities of BBG compared with ICG; conditions: ratio to ICG concentration
[3] = tested on: ILM

Q: `CCOc1ccc(Nc2ccc(/C(=C3C=C/C(=[N+](/CC)Cc4cccc(S(=O)(=O)[O-])c4)C=C/3C)c3ccc(N(CC)Cc4cccc(S(=O)(=O)[O-])c4)cc3C)cc2)cc1.[Na+]` [BBG, Brilliant Blue G] was tested. Which “ILM Peeling” value [1] did it give?
A: +

Q: And the “Postop. BCVA” value ([1]; follow up 2-4 months)?
A: 20/12.5

Q: And the “concentration at which BBG stains a target object compared with ICG” value [2]?
A: 1/10-1/20

Q: What about the ILM peel ([3]; individual ERM case) of the same molecule?
A: +

Q: What about the ILM peel ([3]; individual MH case) of the same molecule?
A: +
